Reference: PubChem BioAssay AID445 (National Center for Advancing Translational Sciences (NCATS), 2006)
This is one part of the list. Further columns of the screen follow, without active or inactive calls. Compounds called inactive in the main read-out are mostly missing here. Words in brackets tell the shape of the fitted curve; partial curves, single points and poor fits give uncertain potencies.

Test: IkB Signaling
Details: ABC-DLBCL IkBa-CBG/CBR dual luciferase ratio (green luciferase fused to IkBa over red control in OCI-Ly3 lymphoma cells), 4 h; measured here: control luc red channel unless noted
Procedure, shortened: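 In this assay, an IκBα–CBG68 fusion accumulates when IKK-driven degradation is blocked; native CBR normalizes for cell number. OCI-Ly3 cells were treated 4 h with compound and doxycycline, then green and red light read after Chroma-Glo addition.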

Compound	AC50
CCC12CN3CC(C)(CN(C1)C3c1c[nH]c3ccccc13)C2=O (configuration not stated)	39.8 µM [falling, single point]
CCc1ccc(NC(=O)CSC2=Nc3ccccc3C3=NC(CCC(=O)NCCc4ccccc4)C(=O)N23)cc1 (configuration not stated)	25.1 µM [falling, single point]
O=C(Nc1ccc(F)cc1Cl)n1ncc2cc(Cl)ccc21	20 µM [falling, single point]
CCC(=O)N1CCc2cc(S(=O)(=O)NC(CC(C)C)C(=O)Nc3cc(C)ccc3OC)ccc21 (configuration not stated)	15.8 µM [falling, partial curve]
COc1ccccc1N(CC(=O)NCCSCc1ccccc1)S(C)(=O)=O	39.8 µM [falling, partial curve]
CCCCc1nn2c(=O)cc(COC(=O)c3cccc(OC)c3)nc2s1	39.8 µM [falling, single point]
COc1ccccc1NC(=O)Cc1nn(C)c(=O)c2ccccc12	25.1 µM [falling, single point]
Cn1c2ccccc2c2c(C(=O)N3CCN(c4ccc(F)cc4)CC3)cn(C3CCCC3)c(=O)c21	10 µM [falling, partial curve]
COc1ccc(-c2cc(C(F)(F)F)nc(SCC(=O)NCc3ccc(OC)c(OC)c3)n2)cc1	39.8 µM [rising, partial curve, poor fit]
CSCCC(NC(=O)c1ccc(C)o1)C(=O)O (configuration not stated)	10 µM [falling, partial curve] [measured here: IkB-luc green channel]
CCC(C)Oc1cccc(OCCCCN2C(=O)NC(C)(C)C2=O)c1 (configuration not stated)	20 µM [falling, partial curve]
O=C(NCc1ccco1)C(c1ccco1)N(CCc1ccccc1)C(=O)Cn1nnc2ccccc21 (configuration not stated)	25.1 µM [falling, partial curve]
CCCc1cc(-c2[nH]ncc2-c2ccc3c(c2)OCCCO3)c(O)cc1O	15.8 µM [falling, partial curve]
CCc1ccc(CNC(=O)c2ccc3c(c2)nc2n3CCC(C)C2)cc1 (configuration not stated)	1.58 µM [falling, partial curve]
COc1cccc(C(=O)Nc2cccc(OCc3cc(=O)n4cc(C)ccc4n3)c2)c1	0.631 µM [falling, full curve]
COc1ccc(NC(=O)CN2C(=O)COc3ccc(S(=O)(=O)Nc4ccccc4)cc32)cc1	7.94 µM [falling, single point]

2 of the compounds above, with each value named.
Cn1c2ccccc2c2c(C(=O)N3CCN(c4ccc(F)cc4)CC3)cn(C3CCCC3)c(=O)c21
  AC50: 10 µM [falling, partial curve]
COc1ccc(-c2cc(C(F)(F)F)nc(SCC(=O)NCc3ccc(OC)c(OC)c3)n2)cc1
  AC50: 39.8 µM [rising, partial curve, poor fit]

Next entries follow:

Compound	AC50
Cc1ccc2nc(-c3ccc(Cl)cc3)cc(C(=O)OCC(=O)c3ccccc3)c2c1	0.126 µM [falling, full curve, poor fit]
COc1ccc(C(=O)NCCc2sc(-c3ccc(F)cc3)nc2C)cc1OC	15.8 µM [falling, partial curve]
CC1CCC(NC(=O)C2(C)Cc3ccccc3C(=O)N2Cc2ccc(F)cc2)CC1 (configuration not stated)	2.51 µM [falling, partial curve]
CCc1ccc(C2Sc3ccccc3NC3=C2C(=O)c2ccccc23)cc1 (configuration not stated)	7.94 µM [falling, partial curve]
CCC(C(=O)NC1CCCCC1)n1c(SCc2ccc(F)cc2)nc2ccncc21 (configuration not stated)	2 µM [falling, full curve]
O=C(COc1ccccc1-c1nnc(-c2ccccc2)o1)Nc1ccc(Br)cc1F	6.31 µM [falling, partial curve]
Cc1cccc(NCc2nc3ccccc3n2CCOc2ccccc2C)c1	12.6 µM [falling, partial curve]
COc1ccc(NC(=O)c2c(C)oc3ccc(O)c(CN4CCCC4)c23)cc1Cl	20 µM [falling, single point]
CCCN(CC(=O)c1cc(C)n(C)c1C)S(=O)(=O)c1cccc(C(F)(F)F)c1	10 µM [falling, partial curve]
COc1ccc(NC(=O)C2CCC(CNS(=O)(=O)c3ccc4c(c3)C(C)(C)C(=O)N4C)CC2)cc1 (configuration not stated)	2.51 µM [rising, partial curve, poor fit]
COc1cc2cc(C(c3nnnn3C3CCCC3)N3CCc4ccccc43)c(=O)[nH]c2cc1OC (configuration not stated)	39.8 µM [falling, partial curve]
CC(C)c1cc(=O)oc2c3c4c(cc12)CCCN4CCC3	15.8 µM [falling, partial curve]
Cc1cccc(N2CCN(C(=O)Cn3ncc4c3-c3ccccc3OC4)CC2)c1C	20 µM [falling, partial curve]
O=C(Nc1nnc(S(=O)(=O)N2CCCCCC2)s1)c1cccc(Br)c1	12.6 µM [falling, partial curve]
N#Cc1ccccc1Cn1c(SCC(=O)Nc2ccc(F)cc2)nc2ccccc21	39.8 µM [falling, single point]
Clc1cccc(N2CCN(c3c4c(nc5nncn35)CCC4)CC2)c1	25.1 µM [falling, single point]
